Reference: patent US20200231640A1
No constants are given. Whether binding was seen depends on the method and setting. In cells and extracts the contact can be indirect. Some binding calls cover weakened binding; strength is not graded here.

Protein sequences, listed by entry. Tags and fused reporters are not part of them.
UniProt P31946: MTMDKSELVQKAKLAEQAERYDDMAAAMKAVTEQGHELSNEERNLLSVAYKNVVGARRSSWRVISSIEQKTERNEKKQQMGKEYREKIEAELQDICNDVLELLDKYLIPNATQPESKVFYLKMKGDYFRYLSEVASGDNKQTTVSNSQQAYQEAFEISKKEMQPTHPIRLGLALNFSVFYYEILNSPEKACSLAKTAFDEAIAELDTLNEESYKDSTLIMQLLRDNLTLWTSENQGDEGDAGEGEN

What was measured:
[1] = biological target: 14-3-3β (human) (UniProt P31946); test: co-immunoprecipitation (capture with anti-14-3-3β, immunoblot with anti-Cdc25C)
[2] = biological target: 14-3-3β (human) (UniProt P31946); test: co-immunoprecipitation, immunoblot
[3] = biological target: 14-3-3β (human) (UniProt P31946); test: co-immunoprecipitation, immunoblot (FIG. 10C)

Measured: binding

B1: Cdc25C (enzyme, human, UniProt P30307 2-473, looked up)
chain: STELFSSTREEGSSGSGPSFRSNQRKMLNLLLERDTSFTVCPDVPRTPVGKFLGDSANLSILSGGTPKRCLDLSNLSSGEITATQLTTSADLDETGHLDSSGLQEVHLAGMNHDQHLMKCSPAQLLCSTPNGLDRGHRKRDAMCSSSANKENDNGNLVDSEMKYLGSPITTVPKLDKNPNLGEDQAEEISDELMEFSLKDQEAKVSRSGLYRSPSMPENLNRPRLKQVEKFKDNTIPDKVKKKYFSGQGKLRKGLCLKKTVSLCDITITQMLEEDSNQGHLIGDFSKVCALPTVSGKHQDLKYVNPETVAALLSGKFQGLIEKFYVIDCRYPYEYLGGHIQGALNLYSQEELFNFFLKKPIVPLDTQKRIIIVFHCEFSSERGPRMCRCLREEDRSLNQYPALYYPELYILKGGYRDFFPEYMELCEPQSYCPMHHQDHKTELLRCRSQSKVQEGERQLREQIALLVKDMSP
binds: all assays above
